{"source": "PubChem BioAssay AID652259 (Drosophila RNAi Screening Center, 2013)", "aim": "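Identify new Wingless signalling regulators in fly cells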 (primary screen)", "system": "Drosophila clone 8 imaginal disc epithelial cells", "reagent": "long dsRNA against Drosophila genes", "challenge": "pathway stimulated by co-transfected Wingless expression plasmid", "measured": "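Dual luciferase reads per well after Wingless plasmid stimulation: reporter firefly light and Renilla control light; activity is firefly divided by Renilla, a ratio not deposited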", "scale": "firefly reporter light: higher = more Wg reporter light, before normalisation; Renilla control light: higher = more transfected or surviving cells", "call rule": "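Strong candidates differ from their plate mean by at least two out of four per-plate statistical tests; weak candidates meet just one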", "calls": "active = candidate regulator (raises or lowers reporter); inactive = not a candidate", "note": "The deposit covers about 22,000 reagents; shown is a random part of those with a known target gene and a result. Over the whole deposit, 233 (1.1%) were called active. 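Light values are raw, unnormalised plate reads; the ratio scores behind the reporter calls were not deposited.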 A number with no mark means an inactive call. Names joined by + are all predicted targets of the reagent. The record does not give: the amount of reagent, the time to read-out, the dose of the treatment."}
{"target gene": "CG17807", "firefly reporter light, replicate 1": 5099, "Renilla control light, replicate 1": 1368}
{"target gene": "PolQ", "firefly reporter light, replicate 1": 15403, "Renilla control light, replicate 1": 5222}
{"target gene": "hec", "firefly reporter light, replicate 1": 20637, "Renilla control light, replicate 1": 9240}
{"target gene": "Gr10b", "firefly reporter light, replicate 1": 18984, "Renilla control light, replicate 1": 8908}
{"target gene": "CG12129", "firefly reporter light, replicate 1": 7517, "Renilla control light, replicate 1": 2808}
{"target gene": "Plekhm1", "firefly reporter light, replicate 1": 2164, "firefly reporter light, replicate 2": 6864, "Renilla control light, replicate 1": 593, "Renilla control light, replicate 2": 2252}
{"target gene": "Usp20-33", "firefly reporter light, replicate 1": 12789, "Renilla control light, replicate 1": 2720}
{"target gene": "dah", "firefly reporter light, replicate 1": 2418, "firefly reporter light, replicate 2": 7562, "Renilla control light, replicate 1": 941, "Renilla control light, replicate 2": 2845}
{"target gene": "CG15186", "firefly reporter light, replicate 1": 13081, "Renilla control light, replicate 1": 2202}
{"target gene": "Rab9Db + Rab9Fa", "firefly reporter light, replicate 1": 13296, "Renilla control light, replicate 1": 8408}
{"target gene": "Muc12Ea", "firefly reporter light, replicate 1": 26593, "firefly reporter light, replicate 2": 8.25e5, "Renilla control light, replicate 1": 14371, "Renilla control light, replicate 2": 3.56e5}
{"target gene": "Oseg2", "firefly reporter light, replicate 1": 5285, "Renilla control light, replicate 1": 2583}
{"target gene": "CG14478", "firefly reporter light, replicate 1": 4811, "Renilla control light, replicate 1": 2045}
{"target gene": "SecCl", "firefly reporter light, replicate 1": 4834, "Renilla control light, replicate 1": 1931}
{"target gene": "CG31445", "firefly reporter light, replicate 1": 3084, "firefly reporter light, replicate 2": 3296, "Renilla control light, replicate 1": 875, "Renilla control light, replicate 2": 1590}
{"target gene": "Sgt1", "firefly reporter light, replicate 1": 22551, "Renilla control light, replicate 1": 4352}
{"target gene": "Non3", "firefly reporter light, replicate 1": 7253, "firefly reporter light, replicate 2": 6966, "Renilla control light, replicate 1": 1408, "Renilla control light, replicate 2": 2328}

Just “Renilla control light, replicate 1”, for 2 of the entries above:
CG12129: 2808
Plekhm1: 593
